# Measurements taken from paper PMC7862700.
# This is a selection; strong and weak results do not stand in their true shares. At the low end of the ranking, values are background and their order means little.
# Molecular target: T1, ELK1 (UniProt P19419)
# T1 sequence: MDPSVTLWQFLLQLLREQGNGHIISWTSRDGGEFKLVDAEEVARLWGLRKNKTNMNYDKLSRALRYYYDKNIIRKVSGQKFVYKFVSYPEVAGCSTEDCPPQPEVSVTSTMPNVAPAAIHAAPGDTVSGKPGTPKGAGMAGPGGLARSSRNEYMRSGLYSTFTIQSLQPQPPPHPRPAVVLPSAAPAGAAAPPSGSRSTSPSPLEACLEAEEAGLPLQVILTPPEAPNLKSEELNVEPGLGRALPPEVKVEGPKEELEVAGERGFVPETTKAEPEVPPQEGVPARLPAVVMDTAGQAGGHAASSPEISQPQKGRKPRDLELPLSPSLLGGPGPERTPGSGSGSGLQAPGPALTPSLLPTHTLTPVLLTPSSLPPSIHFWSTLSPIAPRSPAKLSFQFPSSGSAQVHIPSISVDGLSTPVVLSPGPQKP
# Test: DAPPL (digital affinity profiling via proximity ligation, sequencing)
# Settings: 10 mM Tris-HCl pH 7.5, 50 mM NaCl, 1 mM DTT, 4% glycerol, room temperature, 30 min; GST-TFs on glutathione beads, 16-mer random dsDNA library, 0.1% …; high values mean tight binding; double strand, one strand shown; scale: fold enrichment (6-mer frequency, TF over GST control)
row,Sequence,binding signal
1,ACTAGG,1.1
2,TTTAAG,1.33
3,TCATTA,0.975
4,CAACCC,1.22
5,CATATG,0.987
6,CGGAAC,1.18
7,TTCAGG,1.14
8,ATTTGC,1.36
9,CTATGT,1.11
10,ATCGTT,0.868
11,CTGTTG,1.02

# Molecular target: T2, ELK3 (UniProt P41970)
# T2 sequence: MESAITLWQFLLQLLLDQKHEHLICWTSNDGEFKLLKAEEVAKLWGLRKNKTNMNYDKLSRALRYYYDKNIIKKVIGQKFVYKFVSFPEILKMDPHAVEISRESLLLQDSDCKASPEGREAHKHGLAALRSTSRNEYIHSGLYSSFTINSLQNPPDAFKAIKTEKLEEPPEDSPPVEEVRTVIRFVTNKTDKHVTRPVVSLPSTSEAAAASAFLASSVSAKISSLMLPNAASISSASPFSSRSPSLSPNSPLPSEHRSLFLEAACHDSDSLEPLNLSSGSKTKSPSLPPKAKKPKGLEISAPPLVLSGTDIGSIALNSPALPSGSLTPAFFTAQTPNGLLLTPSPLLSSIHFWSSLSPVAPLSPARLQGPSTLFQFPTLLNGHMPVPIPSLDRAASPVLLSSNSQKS
# Test: as above
# Settings: 10 mM Tris-HCl pH 7.5, 50 mM NaCl, 1 mM DTT, 4% glycerol, room temperature, 30 min; GST-TFs on glutathione beads, 16-mer random dsDNA library, 0.1% …; high values mean tight binding; double strand, one strand shown; scale: fold enrichment (6-mer frequency, TF over GST control)
row,Sequence,binding signal
1,ACTAGG,0.994
2,TTTAAG,1.46
3,TCATTA,0.924
4,CAACCC,1.21
5,CATATG,1.04
6,CGGAAC,1.21
7,TTCAGG,1.09
8,ATTTGC,1.2
9,CTATGT,0.958
10,ATCGTT,0.919
11,CTGTTG,0.998

# Molecular target: T3, ETS2 (UniProt P15036)
# T3 sequence: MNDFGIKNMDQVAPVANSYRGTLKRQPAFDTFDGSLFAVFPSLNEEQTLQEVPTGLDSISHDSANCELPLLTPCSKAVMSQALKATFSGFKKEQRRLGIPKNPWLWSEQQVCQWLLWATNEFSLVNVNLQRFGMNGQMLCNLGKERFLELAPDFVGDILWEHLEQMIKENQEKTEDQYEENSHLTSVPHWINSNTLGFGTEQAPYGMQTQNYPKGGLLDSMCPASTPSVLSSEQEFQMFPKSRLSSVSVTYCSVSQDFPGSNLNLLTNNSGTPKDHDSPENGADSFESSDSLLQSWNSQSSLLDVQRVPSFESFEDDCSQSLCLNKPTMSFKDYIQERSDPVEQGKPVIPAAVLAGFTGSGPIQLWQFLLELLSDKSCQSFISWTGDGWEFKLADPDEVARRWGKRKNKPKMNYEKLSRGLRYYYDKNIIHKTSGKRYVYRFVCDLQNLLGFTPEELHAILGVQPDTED
# Test: as above
# Settings: 10 mM Tris-HCl pH 7.5, 50 mM NaCl, 1 mM DTT, 4% glycerol, room temperature, 30 min; GST-TFs on glutathione beads, 16-mer random dsDNA library, 0.1% …; high values mean tight binding; double strand, one strand shown; scale: fold enrichment (6-mer frequency, TF over GST control)
row,Sequence,binding signal
1,TTTAAT,1.37
2,CACCGA,1.12
3,TACCGG,1.6
4,CTTCCC,2.32
5,CGCGCT,1.25
6,TGGACT,1.27
7,GCGTCT,1.04
8,ATGTGG,1.18
9,TTTGGA,1.19
10,CGACCA,1.29
11,CTCTCG,1.4
12,ACAGCT,1.12
13,AAGTAT,1.46
14,ATCAAC,1.18
15,AGCGAT,1.09
16,CAATGT,0.975
17,TAACCG,1.07
18,GCTCAT,1.26
19,TATTTT,1.35
20,AAATGC,1.25
21,CGATGT,1.12
22,CCAATA,1.28
23,AGGTTT,1.01
24,GCTGCT,1.43
25,TTATAT,1.39
26,GCTTTT,1.17
27,ATACGG,1.22
28,ACGCGC,0.937

# 2 records drawn at random from those above:
row,Sequence,binding signal
14,ATCAAC,1.18
22,CCAATA,1.28
